Laboratory results reported in patent publication US20030108904A1.
Results are given in words; binding and its absence hold for the method and conditions named. Some binding calls cover weakened binding; strength is not graded here.

Sequences of proteins named here, by UniProt entry; tags and fusion partners are left off. A change or cut given only in a name is not applied to a line headed by its entry. Residues count along the entry.
UniProt Q5KU26: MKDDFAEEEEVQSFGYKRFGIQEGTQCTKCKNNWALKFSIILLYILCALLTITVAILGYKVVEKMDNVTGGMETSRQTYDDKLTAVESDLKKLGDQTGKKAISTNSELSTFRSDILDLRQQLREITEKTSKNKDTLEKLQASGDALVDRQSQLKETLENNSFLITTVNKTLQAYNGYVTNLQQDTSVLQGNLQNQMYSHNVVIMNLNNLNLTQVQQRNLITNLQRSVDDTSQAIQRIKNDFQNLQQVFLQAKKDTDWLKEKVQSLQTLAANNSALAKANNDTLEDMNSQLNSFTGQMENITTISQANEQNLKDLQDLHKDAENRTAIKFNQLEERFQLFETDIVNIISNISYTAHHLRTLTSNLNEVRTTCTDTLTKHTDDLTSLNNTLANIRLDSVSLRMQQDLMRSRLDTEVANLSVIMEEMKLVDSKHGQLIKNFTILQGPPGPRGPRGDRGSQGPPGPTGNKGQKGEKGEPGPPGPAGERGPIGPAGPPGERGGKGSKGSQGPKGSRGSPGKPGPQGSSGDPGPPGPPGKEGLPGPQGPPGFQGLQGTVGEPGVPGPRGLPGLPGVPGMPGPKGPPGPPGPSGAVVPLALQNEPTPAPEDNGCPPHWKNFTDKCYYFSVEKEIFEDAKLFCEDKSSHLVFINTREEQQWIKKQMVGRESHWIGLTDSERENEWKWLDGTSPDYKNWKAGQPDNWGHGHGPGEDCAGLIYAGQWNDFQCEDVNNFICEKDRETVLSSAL
UniProt P02768, residues 25-609: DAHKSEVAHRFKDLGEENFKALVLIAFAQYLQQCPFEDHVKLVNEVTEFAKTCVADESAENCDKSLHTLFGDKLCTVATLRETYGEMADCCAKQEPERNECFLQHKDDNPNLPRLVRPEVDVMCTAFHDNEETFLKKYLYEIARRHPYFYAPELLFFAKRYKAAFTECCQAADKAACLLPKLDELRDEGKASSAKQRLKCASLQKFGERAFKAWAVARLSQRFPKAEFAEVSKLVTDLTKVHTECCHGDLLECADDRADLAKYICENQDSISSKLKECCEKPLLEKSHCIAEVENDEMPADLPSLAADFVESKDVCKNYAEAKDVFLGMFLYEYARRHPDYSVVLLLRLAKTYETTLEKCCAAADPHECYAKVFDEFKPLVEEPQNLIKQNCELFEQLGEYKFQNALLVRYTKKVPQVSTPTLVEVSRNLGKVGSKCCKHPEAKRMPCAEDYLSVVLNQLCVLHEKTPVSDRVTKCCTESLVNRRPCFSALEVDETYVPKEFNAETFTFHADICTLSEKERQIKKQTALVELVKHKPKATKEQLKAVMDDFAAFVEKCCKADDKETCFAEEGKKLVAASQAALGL

Columns and labels:
[1] = biological target: hSRCL-P1 stably expressed on CHO cells (CHO/hSRCL-P1), from vector pcDNA3.1/Myc-His A-hSRCL-P1 (human) (UniProt Q5KU26); experiment: fluorescence microscopy on cells expressing hSRCL-P1 (FIG. 6 legend)
[2] = biological target: hSRCL-P1 transiently expressed in CHO cells from vector pEGFP-N1-hSRCL-P1 (human) (UniProt Q5KU26); experiment: fluorescence microscopy on CHO cells transiently expressing hSRCL-P1
[3] = biological target: hSRCL-P1 stably expressed on CHO cells (CHO/hSRCL-P1), from vector pcDNA3.1/Myc-His A-hSRCL-P1 (human) (UniProt Q5KU26); experiment: fluorescence microscopy; 10 µg/ml AGE-HSA on CHO/hSRCL-P1 cells, 3 h at 4° C., detected with anti-HSA antibody and Alexa 594 anti-goat IgG

Measured: binding

AGE-HSA (AGE-human serum albumin) (from UniProt P02768 25-609) (ligand)
binds: [1] | [2] | [3]
